Laboratory results reported in paper PMC10040131.
Results are given in words; binding and its absence hold for the method and conditions named. Binding seen in cells or lysates may run through a third protein. Some results given as binding are weak or reduced against the parent protein; the word gives no strength.

Sequences of proteins named here, by UniProt entry; tags and fusion partners are left off.
UniProt Q16665: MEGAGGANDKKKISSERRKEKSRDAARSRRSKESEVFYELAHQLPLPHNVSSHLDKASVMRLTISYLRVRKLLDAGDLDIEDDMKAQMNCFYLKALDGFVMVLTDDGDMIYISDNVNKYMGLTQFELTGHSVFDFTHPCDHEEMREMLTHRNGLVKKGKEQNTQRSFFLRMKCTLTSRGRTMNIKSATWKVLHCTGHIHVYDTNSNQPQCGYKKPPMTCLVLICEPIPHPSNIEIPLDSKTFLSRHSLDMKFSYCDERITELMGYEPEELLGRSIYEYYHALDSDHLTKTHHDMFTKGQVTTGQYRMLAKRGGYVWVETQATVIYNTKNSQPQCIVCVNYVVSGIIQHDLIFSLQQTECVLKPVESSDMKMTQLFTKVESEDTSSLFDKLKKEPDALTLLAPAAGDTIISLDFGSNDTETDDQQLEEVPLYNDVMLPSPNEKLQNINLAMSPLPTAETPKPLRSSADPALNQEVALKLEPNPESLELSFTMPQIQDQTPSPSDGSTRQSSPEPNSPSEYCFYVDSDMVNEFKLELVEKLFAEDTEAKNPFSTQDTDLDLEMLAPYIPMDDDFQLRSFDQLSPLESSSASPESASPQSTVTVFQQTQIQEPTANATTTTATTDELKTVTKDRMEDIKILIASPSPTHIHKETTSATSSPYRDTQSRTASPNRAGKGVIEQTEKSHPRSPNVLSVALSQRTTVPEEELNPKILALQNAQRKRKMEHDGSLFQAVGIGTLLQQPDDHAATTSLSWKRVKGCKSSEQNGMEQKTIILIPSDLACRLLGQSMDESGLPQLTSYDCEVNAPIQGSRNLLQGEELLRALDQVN
UniProt Q99814: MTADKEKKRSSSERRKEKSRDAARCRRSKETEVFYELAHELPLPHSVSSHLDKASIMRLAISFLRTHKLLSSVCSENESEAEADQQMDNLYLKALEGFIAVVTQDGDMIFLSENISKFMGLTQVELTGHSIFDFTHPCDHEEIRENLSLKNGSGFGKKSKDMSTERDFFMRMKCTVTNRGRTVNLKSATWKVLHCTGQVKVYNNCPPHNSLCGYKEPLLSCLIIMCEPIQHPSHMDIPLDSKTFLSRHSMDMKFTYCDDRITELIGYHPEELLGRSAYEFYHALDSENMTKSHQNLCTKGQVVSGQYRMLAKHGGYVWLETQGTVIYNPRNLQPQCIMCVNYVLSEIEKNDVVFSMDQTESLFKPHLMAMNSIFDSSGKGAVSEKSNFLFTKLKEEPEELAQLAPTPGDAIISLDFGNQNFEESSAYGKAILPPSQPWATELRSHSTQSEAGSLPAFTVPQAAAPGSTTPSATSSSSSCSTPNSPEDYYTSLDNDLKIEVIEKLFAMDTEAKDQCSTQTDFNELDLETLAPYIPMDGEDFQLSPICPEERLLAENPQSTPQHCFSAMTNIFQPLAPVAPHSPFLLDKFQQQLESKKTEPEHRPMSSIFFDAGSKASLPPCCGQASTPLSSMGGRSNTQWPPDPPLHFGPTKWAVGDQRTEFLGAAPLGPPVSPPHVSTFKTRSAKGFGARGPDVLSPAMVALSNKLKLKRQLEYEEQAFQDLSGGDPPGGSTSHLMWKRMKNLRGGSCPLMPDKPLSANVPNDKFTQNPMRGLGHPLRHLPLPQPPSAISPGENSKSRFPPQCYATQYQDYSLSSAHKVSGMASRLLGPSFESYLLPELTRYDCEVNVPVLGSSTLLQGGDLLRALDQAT
UniProt Q09028: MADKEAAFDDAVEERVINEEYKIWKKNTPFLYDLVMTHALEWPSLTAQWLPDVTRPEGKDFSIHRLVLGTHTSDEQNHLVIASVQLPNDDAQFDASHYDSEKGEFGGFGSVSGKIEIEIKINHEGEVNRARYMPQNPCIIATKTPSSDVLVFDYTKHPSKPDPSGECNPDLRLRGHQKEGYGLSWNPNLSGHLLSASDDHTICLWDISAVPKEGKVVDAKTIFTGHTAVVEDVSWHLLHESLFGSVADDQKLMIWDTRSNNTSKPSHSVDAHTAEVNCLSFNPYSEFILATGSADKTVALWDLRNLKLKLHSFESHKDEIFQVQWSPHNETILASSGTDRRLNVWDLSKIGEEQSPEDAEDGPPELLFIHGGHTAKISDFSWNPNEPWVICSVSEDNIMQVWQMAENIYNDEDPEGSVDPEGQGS
UniProt P28370: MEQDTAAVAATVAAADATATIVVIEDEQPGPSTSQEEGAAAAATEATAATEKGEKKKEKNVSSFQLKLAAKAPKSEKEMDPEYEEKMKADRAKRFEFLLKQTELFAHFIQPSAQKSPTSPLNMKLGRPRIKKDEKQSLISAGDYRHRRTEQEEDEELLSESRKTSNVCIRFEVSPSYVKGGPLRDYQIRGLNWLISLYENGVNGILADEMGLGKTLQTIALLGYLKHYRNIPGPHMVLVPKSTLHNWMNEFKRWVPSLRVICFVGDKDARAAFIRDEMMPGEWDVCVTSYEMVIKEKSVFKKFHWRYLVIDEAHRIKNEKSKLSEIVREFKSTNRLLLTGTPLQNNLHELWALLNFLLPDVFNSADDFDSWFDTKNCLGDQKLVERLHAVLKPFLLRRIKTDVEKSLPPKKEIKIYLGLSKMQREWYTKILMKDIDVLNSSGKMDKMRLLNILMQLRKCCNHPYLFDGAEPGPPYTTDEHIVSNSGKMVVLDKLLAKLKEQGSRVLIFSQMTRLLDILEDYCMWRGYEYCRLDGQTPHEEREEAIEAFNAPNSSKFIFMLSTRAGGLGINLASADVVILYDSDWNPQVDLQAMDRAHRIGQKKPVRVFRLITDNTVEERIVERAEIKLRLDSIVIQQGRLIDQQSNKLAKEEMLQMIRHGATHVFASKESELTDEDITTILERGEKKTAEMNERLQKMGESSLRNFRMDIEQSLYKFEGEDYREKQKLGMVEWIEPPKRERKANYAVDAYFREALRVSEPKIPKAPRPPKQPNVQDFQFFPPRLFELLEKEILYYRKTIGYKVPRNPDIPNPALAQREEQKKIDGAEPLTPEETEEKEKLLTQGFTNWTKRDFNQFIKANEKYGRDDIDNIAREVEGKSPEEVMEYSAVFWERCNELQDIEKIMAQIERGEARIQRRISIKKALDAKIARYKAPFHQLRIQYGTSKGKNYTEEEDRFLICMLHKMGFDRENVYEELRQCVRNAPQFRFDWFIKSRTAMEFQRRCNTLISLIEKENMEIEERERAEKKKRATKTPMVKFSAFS

What was measured:
[1] = biological target: T1, PHF6 (human (endogenous in MCF-7)) (UniProt Q8IWS0); assay: co-IP; MCF-7 cells exposed to 1% O2 for 12 h; whole cell lysates precipitated with anti-PHF6 antibody or control IgG; endogenous proteins; western blot
T1 sequence: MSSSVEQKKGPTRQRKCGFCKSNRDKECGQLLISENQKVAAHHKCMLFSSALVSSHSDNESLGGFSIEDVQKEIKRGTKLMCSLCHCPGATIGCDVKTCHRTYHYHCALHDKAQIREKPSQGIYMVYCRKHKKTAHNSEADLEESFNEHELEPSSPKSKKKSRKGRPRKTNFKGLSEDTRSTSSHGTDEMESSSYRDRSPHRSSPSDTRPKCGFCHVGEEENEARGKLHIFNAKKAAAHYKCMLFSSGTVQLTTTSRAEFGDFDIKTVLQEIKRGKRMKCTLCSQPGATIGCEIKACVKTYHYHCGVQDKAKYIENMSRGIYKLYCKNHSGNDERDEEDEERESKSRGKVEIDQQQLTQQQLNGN

[2] = biological target: T1, PHF6 (human (endogenous in MCF-7)); assay: co-IP; endogenous PHF6 and NURF subunits; HEPES lysis buffer (20 mM HEPES, 150 mM NaCl, 1 mM EDTA, 0.5% NP-40, 0.25% deoxycholate), protein A/G agarose beads and antibody at 4 °C overnight; western blot; cell line and precipitating antibody not stated

Substance | binding [1] | binding [2]
HIF-1α (from UniProt Q16665 1-826) | binds | 
HIF-2α (from UniProt Q99814 1-870) | binds | 
RBBP4 (from UniProt Q09028 1-425) |  | binds
SNF2L (from UniProt P28370 1-1042) |  | binds
